# Assay results: the supplement of paper PMC12889115
# The list shows a part of the results. Values are raw readings; no control value is given beside them.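 In the initial screen, polymyxin B was used at a concentration that permeabilizes Salmonella's outer membrane but not its inner membrane. Maximum growth was set by DMSO wells with or without polymyxin B. Since plates varied, data were ranked per plate, and compounds giving the lowest OD600 advanced as hits.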
# System: Salmonella enterica serovar Typhimurium SL1344
# Experiment: bacterial growth OD600 after 18 h with compound and polymyxin B; higher = more bacterial growth (less inhibition)
# Conditions: 50 µM, Mueller-Hinton broth
Structure (SMILES),bacterial growth OD600 (polymyxin B 0.75 µg/mL),bacterial growth OD600 (polymyxin B 1 µg/mL)
CC(Cc1cccs1)NC(=O)Cn1cc(NC(=O)CCOc2ccccc2)cn1 (centres undefined),0.799,
COc1cc(CNCc2cccnc2Oc2ccccc2C)cc2c1OCO2,,0.871
OCC1(CCc2ccccc2)CCCN(Cc2cccc3cccnc23)C1 (centres undefined),0.76,
C=CCN(CC=C)C(=O)c1ccc(OC2CCN(S(=O)(=O)N(C)C)CC2)cc1,,0.881
COc1ccc2c(c1)C=C(CNCc1cccnc1N1CCN(C(C)=O)CC1)CO2,0.826,
O=C(CC1c2ccccc2CCc2ccccc21)N1CCCC1c1nccs1 (centres undefined),0.006,
CC(C)CC(=O)Nc1ccnn1C1CCN(Cc2ccc3cccc(F)c3n2)CC1,0.786,
O=C(C1CCOCC1)N1CCCC(CCc2cccc(C(F)(F)F)c2)C1 (centres undefined),0.355,
O=C(NC1CC(=O)N(Cc2cccc(F)c2)C1)c1ccncc1 (centres undefined),,1.12
CC1(C)Cc2c(cnn2-c2ccccc2)C(NC(=O)c2ccncc2)C1 (centres undefined),0.778,
CSc1ncc(CNCc2cccnc2Oc2ccc(F)cc2F)cn1,,1.29
Cc1nc(N2CCCC(NCc3ccccc3)CC2)nc2ccc(F)cc12 (centres undefined),0.792,
Cn1cc(CN2CCOC(CCCc3ccccc3)C2)cn1 (centres undefined),0.796,
O=C(Nc1ccnn1C1CCN(C(=O)CCc2c[nH]c3ccccc23)CC1)C1CC1,0.863,
O=C(c1csc2nc(-c3ccccc3)cn12)N1CCOCC1,,1.15
COc1cccc(C2(CC(=O)N(C)Cc3nc4ccccc4s3)CC(=O)N(C3CCCC3)C2=O)c1 (centres undefined),0,
COc1ccc(CCN2CC(NC(=O)c3cccnc3)CC2=O)cc1 (centres undefined),,0.891

Structure (SMILES),bacterial growth OD600 (polymyxin B 0.75 µg/mL),bacterial growth OD600 (polymyxin B 1 µg/mL)
O=C(NCC1CC(Cc2ccc(F)cc2)=NO1)c1n[nH]c2c1CCC2 (centres undefined),0.771,
COC(=O)c1ccc(CN2CCC(C(Cc3ccccc3Cl)N(C)C(=O)c3ccco3)CC2)cc1 (centres undefined),0.006,
COCc1ccc(CNCc2cccnc2N2CCN(c3ccccn3)CC2)o1,,0.845
COc1ccccc1OCc1cc(C(=O)N2CCCN(c3ncccn3)CC2)n[nH]1,,0.948
COC(=O)CN(C)C(=O)c1coc(COc2ccccc2)n1,0.784,
CCOC(=O)C1(Cc2cccc(F)c2)CCN(Cc2ccc(OC)c(O)c2)CC1,,0.87
O=C(NCc1cccnc1Oc1ccccc1)c1ccncc1,0.831,
O=C(NCC1CCC2(CCN(Cc3ccc(-c4ccc(Cl)cc4)o3)CC2)O1)C1CCOCC1 (centres undefined),0.004,
CCOc1ccccc1CN1CCN(Cc2cn(CC)nc2C)CC1CCO (centres undefined),,0.834
COCCN(C(=O)c1ccc(OC2CCN(S(=O)(=O)N(C)C)CC2)cc1)C(C)C,,1
OC1CCN([C@@H]2CCN(Cc3c[nH]nc3-c3ccc(Cl)cc3)C[C@H]2O)CC1,,0.457
O=C(NCC1(O)CCCCC1)c1csc2nc(-c3ccccc3)cn12,,1.03
CC(C)c1ccc(NC2CCCN(C(=O)c3ccc(N4CC(=O)NC4=O)cc3)C2)cc1 (centres undefined),,1.01
COc1cc(CN2CCN(Cc3ccc(F)c(F)c3)CC2CCO)cc(OC)c1 (centres undefined),,0.843
Fc1cccc(-c2cnnc(N3CCCC3c3nc4cc(F)ccc4[nH]3)n2)c1 (centres undefined),0.593,
CC(C)N1C[C@H]2OC(=O)N(CCc3cccc(Cl)c3)[C@H]2C1,,0.869
Cc1ccccc1CCN1CCC(CN(C(=O)C2CCOCC2)C2CCCC2)CC1,,0.828

# A different layout for some results above:
Structure (SMILES) | bacterial growth OD600 (polymyxin B 0.75 µg/mL) | bacterial growth OD600 (polymyxin B 1 µg/mL)
O=C(CC1c2ccccc2CCc2ccccc21)N1CCCC1c1nccs1 (centres undefined) | 0.006 | 
CC(C)CC(=O)Nc1ccnn1C1CCN(Cc2ccc3cccc(F)c3n2)CC1 | 0.786 | 
CSc1ncc(CNCc2cccnc2Oc2ccc(F)cc2F)cn1 |  | 1.29
COc1ccccc1OCc1cc(C(=O)N2CCCN(c3ncccn3)CC2)n[nH]1 |  | 0.948
CCOc1ccccc1CN1CCN(Cc2cn(CC)nc2C)CC1CCO (centres undefined) |  | 0.834
O=C(NCC1(O)CCCCC1)c1csc2nc(-c3ccccc3)cn12 |  | 1.03
COc1cc(CN2CCN(Cc3ccc(F)c(F)c3)CC2CCO)cc(OC)c1 (centres undefined) |  | 0.843
Fc1cccc(-c2cnnc(N3CCCC3c3nc4cc(F)ccc4[nH]3)n2)c1 (centres undefined) | 0.593 | 
